Measured values taken from publication PMC4773433, “The Bub1–Plk1 kinase complex promotes spindle checkpoint signalling through Cdc20 phosphorylation” (Nature Communications, 2016).
No constants are given. Whether binding was seen depends on the method and setting. For some of these results: In cells and extracts the contact can be indirect. Some results given as binding are weak or reduced against the parent protein; the word gives no strength. For some of these results: Where a sequence is shown, tags or fusion partners need not be part of it. Blank lines part the entries; values can stand above or below the molecule they belong to.

Amino acid sequences for entries named in this document (tags omitted). A change or cut given only in a name is not applied to a line headed by its entry. Chains listed by the source or under a name are the forms on record and can include a tag or linker.
UniProt Q12834: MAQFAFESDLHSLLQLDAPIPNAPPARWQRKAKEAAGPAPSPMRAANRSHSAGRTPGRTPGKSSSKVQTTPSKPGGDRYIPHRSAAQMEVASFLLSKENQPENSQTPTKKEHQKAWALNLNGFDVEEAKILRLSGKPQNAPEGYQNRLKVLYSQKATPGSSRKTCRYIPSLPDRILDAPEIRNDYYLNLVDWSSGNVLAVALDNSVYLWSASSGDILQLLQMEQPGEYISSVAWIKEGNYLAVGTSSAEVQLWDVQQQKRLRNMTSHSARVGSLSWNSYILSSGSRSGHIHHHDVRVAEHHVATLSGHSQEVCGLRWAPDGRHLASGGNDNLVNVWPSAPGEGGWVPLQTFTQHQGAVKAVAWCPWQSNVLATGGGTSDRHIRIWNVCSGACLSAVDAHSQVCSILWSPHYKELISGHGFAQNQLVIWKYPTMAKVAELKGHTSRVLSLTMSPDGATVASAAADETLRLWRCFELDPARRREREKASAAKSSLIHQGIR
Flag-Cdc20 5A (Q12834, form named): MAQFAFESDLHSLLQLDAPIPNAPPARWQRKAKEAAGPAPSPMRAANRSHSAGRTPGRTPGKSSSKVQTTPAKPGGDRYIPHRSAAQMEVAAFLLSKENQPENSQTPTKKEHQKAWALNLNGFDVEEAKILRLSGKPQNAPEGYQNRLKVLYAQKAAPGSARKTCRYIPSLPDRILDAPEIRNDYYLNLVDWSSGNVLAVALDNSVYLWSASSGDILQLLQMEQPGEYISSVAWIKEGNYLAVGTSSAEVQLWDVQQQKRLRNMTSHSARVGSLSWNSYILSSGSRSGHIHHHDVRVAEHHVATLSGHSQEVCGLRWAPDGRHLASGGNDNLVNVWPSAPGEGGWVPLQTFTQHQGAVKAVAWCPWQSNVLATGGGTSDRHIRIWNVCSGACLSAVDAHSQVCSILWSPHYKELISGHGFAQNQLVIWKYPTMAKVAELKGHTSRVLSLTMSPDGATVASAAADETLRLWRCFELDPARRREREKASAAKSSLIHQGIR
UniProt O43684: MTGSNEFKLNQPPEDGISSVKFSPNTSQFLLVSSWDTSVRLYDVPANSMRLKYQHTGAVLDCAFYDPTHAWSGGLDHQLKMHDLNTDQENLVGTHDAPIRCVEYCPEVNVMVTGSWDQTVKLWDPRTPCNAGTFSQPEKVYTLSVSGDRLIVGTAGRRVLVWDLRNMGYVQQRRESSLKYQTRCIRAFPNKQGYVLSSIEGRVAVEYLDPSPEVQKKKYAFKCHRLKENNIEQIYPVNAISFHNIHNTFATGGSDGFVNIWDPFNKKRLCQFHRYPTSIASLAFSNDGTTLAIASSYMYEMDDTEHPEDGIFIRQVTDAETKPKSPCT

Legend:
[1] = molecular target: T1, Strep–His6–Bub1^ΔKinase (residues 1–723) (human) (UniProt O43683); assay: affinity co-purification of co-expressed proteins; Strep–His6–Bub1 (full-length or ΔKinase) co-expressed with His6–Bub3 in Sf9 cells; complexes purified on Strep-Tactin Superflow Plus resin in buffer B (50 mM Tris-HCl pH 7.7, 200 mM NaCl) and eluted with 15 mM D-desthiobiotin
T1 sequence: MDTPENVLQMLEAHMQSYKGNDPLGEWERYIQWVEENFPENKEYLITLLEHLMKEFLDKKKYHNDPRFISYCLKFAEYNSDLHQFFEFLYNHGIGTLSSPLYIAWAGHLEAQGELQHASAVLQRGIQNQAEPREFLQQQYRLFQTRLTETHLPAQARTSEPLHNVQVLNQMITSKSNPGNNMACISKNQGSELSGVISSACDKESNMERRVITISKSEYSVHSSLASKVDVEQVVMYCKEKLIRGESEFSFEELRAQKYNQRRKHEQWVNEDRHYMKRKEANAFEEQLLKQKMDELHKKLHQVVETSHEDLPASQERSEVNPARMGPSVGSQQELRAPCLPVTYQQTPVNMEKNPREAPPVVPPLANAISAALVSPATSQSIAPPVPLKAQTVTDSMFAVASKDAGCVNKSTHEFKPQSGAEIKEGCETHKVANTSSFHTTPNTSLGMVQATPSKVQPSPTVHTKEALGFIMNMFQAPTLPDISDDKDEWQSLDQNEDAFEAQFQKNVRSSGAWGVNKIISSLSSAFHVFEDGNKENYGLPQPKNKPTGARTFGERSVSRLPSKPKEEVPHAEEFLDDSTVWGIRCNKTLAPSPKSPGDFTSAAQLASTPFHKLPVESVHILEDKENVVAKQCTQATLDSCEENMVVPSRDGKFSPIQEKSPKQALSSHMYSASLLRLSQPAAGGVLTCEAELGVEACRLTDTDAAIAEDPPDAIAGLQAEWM

[2] = molecular target: Strep–His6–Bub1 (full-length) (human) (UniProt O43683); assay: as above
[3] = molecular target: Flag-Cdc20 WT (human) (UniProt Q12834); assay: co-IP; anti-Flag immunoprecipitation from lysates of HeLa Tet-On cells stably expressing Flag-Cdc20 WT or 5A, arrested in mitosis by 5 μM nocodazole; blots
[4] = molecular target: Flag-Cdc20 5A (human) (UniProt Q12834); assay: as above

- binding [1]: binds
- binding [2]: binds
Molecule: His6–Bub3 (from UniProt O43684 1-328)

- binding [3]: binds
- binding [4]: binds
B1: p31^comet (protein, UniProt Q15013 1-274)
chain: MAAPEAEVLSSAAVPDLEWYEKSEETHASQIELLETSSTQEPLNASEAFCPRDCMVPVVFPGPVSQEGCCQFTCELLKHIMYQRQQLPLPYEQLKHFYRKPSPQAEEMLKKKPRATTEVSSRKCQQALAELESVLSHLEDFFARTLVPRVLILLGGNALSPKEFYELDLSLLAPYSVDQSLSTAACLRRLFRAIFMADAFSELQAPPLMGTVVMAQGHRNCGEDWFRPKLNYRVPSRGHKLTVTLSCGRPSIRTTAWEDYIWFQAPVTFKGFRE
